No constants are given. Whether binding was seen depends on the method and setting.
Target: His6-RneNTD (E. coli)
Test: pull-down; His-tagged RneNTD (3.5 µg) immobilised on Ni-NTA magnetic agarose beads; 3.5 µg Strep-tagged candidate protein in 250 µL interaction buffer (50 mM NaH2PO4, 300 mM NaCl, 10 mM MgCl2, 40 mM imidazole, 0.005% Tween 20, pH 8.0), 1.5 h at RT, 4 washes; SDS-PAGE/Coomassie; both purified

B1: Strep-RNase G (enzyme, UniProt P0A9J0 1-489)
chain: MTAELLVNVTPSETRVAYIDGGILQEIHIEREARRGIVGNIYKGRVSRVLPGMQAAFVDIGLDKAAFLHASDIMPHTECVAGEEQKQFTVRDISELVRQGQDLMVQVVKDPLGTKGARLTTDITLPSRYLVFMPGASHVGVSQRIESESERERLKKVVAEYCDEQGGFIIRTAAEGVGEAELASDAAYLKRVWTKVMERKKRPQTRYQLYGELALAQRVLRDFADAELDRIRVDSRLTYEALLEFTSEYIPEMTSKLEHYTGRQPIFDLFDVENEIQRALERKVELKSGGYLIIDQTEAMTTVDINTGAFVGHRNLDDTIFNTNIEATQAIARQLRLRNLGGIIIIDFIDMNNEDHRRRVLHSLEQALSKDRVKTSVNGFSALGLVEMTRKRTRESIEHVLCNECPTCHGRGTVKTVETVCYEIMREIVRVHHAYDSDRFLVYASPAVAEALKGEESHSLAEVEIFVGKQVKVQIEPLYNQEQFDVVMM
binding: no binding (tested: 3.5 µg in 250 µL interaction buffer)
